These are yes or no findings as the source states them, for the method shown. Binding seen in cells or lysates may run through a third protein. These calls come from enrichment with a bait or labelling near it, and not all partners need be listed. One block for each molecule: values may come before it.
Molecular target: sacsin (human (endogenous in SH-SY5Y)) (UniProt Q9NZJ4)
Experiment: affinity purification with mass spectrometry; IP of endogenous sacsin (anti-sacsin antibody on magnetic Dynabeads) from lysate of WT SH-SY5Y cells differentiated into neurons; lysis in 5 mM EDTA pH 8.0, 0.1% Triton X-100 in PBS; overnight at 4°C; eluates by label-free quantitative LC-MS/MS; SACS-/- SH-SY5Y cells as negative control

Chains of the proteins cited; added tags and fusions are not shown.
UniProt Q9NZJ4: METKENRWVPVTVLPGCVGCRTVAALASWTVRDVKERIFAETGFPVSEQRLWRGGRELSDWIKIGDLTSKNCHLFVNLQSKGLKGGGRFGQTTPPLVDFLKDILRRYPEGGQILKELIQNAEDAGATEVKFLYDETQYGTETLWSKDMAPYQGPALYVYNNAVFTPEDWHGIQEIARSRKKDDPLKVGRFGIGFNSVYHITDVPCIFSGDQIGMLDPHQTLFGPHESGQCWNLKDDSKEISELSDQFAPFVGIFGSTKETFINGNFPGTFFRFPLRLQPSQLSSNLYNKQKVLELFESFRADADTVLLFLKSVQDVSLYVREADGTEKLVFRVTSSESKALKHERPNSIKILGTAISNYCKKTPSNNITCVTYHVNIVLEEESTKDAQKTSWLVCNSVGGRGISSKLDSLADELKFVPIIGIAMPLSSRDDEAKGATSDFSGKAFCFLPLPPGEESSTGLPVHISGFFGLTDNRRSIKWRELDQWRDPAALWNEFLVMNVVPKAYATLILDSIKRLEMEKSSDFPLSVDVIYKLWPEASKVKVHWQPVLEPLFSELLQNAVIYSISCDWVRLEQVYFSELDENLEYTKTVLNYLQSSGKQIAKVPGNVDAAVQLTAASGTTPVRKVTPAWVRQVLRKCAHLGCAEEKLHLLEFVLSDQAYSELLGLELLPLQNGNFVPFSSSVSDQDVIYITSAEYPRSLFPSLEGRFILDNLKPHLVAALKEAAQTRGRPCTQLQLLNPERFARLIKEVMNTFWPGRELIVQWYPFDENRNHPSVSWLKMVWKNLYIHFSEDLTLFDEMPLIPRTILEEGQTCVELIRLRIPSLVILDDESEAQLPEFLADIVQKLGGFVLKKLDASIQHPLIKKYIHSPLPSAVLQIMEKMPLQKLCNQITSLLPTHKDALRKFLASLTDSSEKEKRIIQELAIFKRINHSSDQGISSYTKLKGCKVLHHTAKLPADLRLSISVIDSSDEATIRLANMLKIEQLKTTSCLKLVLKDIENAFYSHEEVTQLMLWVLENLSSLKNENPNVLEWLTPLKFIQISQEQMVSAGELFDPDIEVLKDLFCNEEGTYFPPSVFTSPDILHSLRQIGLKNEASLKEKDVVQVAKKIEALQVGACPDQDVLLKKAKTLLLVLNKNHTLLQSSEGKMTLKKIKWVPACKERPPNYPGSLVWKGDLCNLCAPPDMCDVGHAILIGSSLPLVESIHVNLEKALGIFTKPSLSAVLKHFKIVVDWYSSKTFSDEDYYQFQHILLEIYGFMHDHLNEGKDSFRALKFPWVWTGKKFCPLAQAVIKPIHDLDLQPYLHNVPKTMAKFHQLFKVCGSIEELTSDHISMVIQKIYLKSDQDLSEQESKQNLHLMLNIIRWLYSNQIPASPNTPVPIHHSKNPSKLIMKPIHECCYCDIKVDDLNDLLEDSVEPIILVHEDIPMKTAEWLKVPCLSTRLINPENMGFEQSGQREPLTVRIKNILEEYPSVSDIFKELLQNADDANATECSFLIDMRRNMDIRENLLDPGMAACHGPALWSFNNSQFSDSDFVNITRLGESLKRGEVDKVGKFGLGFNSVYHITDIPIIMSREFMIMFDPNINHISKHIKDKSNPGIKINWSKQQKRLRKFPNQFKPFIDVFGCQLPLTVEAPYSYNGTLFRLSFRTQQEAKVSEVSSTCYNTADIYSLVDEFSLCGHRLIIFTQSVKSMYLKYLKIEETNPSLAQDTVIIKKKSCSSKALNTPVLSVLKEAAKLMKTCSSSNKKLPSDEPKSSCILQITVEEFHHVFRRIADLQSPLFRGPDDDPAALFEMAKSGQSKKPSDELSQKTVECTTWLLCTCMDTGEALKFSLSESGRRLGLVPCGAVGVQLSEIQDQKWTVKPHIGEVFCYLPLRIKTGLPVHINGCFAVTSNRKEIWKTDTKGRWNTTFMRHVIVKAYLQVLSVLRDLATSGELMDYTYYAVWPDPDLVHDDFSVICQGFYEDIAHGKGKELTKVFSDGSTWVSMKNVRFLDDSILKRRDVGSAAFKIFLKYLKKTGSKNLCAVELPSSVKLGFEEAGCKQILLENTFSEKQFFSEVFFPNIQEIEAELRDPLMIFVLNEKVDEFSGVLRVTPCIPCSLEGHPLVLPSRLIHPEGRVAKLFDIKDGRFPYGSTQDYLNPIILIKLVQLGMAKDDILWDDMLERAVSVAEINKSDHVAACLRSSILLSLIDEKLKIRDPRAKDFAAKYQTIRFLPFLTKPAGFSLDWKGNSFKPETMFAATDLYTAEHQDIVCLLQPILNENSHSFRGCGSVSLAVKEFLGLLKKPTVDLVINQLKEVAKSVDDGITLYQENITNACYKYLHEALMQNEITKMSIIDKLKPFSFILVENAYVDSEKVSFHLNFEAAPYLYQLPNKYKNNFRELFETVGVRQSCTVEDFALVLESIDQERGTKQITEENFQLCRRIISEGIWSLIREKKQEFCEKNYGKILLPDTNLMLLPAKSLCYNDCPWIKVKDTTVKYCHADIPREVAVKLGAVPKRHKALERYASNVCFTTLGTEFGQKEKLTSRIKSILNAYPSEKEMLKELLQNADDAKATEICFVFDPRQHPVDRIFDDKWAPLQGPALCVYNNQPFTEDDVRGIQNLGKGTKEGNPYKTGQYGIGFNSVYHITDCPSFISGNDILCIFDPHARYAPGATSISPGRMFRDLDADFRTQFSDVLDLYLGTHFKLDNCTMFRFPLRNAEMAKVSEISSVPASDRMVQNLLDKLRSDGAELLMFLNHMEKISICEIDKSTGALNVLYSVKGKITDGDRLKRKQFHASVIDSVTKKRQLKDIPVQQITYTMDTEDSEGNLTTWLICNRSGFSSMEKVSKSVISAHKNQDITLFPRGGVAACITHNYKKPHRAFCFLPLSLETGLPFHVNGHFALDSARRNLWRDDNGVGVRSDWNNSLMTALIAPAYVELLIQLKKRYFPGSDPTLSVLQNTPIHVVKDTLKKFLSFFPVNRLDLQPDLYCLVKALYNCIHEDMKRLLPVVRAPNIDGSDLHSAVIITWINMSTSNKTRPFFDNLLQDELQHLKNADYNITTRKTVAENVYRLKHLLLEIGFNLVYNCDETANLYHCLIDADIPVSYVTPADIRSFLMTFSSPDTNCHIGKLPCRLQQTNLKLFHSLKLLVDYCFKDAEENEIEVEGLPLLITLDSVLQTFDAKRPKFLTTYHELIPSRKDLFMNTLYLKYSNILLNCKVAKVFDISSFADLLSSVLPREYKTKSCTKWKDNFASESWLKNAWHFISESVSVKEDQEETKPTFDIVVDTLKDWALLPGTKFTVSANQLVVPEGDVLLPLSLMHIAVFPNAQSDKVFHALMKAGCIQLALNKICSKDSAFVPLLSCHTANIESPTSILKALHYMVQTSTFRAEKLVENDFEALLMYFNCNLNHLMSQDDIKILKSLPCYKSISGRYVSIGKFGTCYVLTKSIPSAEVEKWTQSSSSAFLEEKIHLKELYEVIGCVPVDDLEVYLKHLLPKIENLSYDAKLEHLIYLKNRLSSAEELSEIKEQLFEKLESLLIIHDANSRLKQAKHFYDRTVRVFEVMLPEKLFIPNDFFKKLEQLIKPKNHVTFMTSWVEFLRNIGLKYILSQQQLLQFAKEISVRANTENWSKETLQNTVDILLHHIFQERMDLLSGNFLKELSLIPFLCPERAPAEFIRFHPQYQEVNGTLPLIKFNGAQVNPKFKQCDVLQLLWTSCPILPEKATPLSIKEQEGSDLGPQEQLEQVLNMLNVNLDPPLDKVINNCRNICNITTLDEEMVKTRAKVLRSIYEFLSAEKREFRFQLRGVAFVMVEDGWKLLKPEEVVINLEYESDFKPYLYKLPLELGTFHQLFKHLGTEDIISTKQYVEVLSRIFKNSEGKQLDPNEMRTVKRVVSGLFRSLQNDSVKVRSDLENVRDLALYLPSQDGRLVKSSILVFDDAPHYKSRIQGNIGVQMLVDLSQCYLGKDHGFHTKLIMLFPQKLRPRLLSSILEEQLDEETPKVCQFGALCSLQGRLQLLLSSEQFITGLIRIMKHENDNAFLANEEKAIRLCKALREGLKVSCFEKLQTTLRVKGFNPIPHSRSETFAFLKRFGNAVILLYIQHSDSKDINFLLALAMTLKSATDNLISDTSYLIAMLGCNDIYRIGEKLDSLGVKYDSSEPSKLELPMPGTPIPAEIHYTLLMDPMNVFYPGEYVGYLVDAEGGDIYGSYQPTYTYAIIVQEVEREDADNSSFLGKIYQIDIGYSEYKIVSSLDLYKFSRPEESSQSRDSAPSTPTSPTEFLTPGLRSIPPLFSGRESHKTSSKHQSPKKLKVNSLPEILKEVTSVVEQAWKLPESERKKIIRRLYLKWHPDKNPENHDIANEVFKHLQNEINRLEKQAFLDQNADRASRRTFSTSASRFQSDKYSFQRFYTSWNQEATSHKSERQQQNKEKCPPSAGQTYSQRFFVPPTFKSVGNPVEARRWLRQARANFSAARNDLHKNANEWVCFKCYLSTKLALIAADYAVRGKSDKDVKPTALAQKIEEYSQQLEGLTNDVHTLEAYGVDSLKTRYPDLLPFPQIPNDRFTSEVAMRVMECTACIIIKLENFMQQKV
UniProt Q9Y4I1: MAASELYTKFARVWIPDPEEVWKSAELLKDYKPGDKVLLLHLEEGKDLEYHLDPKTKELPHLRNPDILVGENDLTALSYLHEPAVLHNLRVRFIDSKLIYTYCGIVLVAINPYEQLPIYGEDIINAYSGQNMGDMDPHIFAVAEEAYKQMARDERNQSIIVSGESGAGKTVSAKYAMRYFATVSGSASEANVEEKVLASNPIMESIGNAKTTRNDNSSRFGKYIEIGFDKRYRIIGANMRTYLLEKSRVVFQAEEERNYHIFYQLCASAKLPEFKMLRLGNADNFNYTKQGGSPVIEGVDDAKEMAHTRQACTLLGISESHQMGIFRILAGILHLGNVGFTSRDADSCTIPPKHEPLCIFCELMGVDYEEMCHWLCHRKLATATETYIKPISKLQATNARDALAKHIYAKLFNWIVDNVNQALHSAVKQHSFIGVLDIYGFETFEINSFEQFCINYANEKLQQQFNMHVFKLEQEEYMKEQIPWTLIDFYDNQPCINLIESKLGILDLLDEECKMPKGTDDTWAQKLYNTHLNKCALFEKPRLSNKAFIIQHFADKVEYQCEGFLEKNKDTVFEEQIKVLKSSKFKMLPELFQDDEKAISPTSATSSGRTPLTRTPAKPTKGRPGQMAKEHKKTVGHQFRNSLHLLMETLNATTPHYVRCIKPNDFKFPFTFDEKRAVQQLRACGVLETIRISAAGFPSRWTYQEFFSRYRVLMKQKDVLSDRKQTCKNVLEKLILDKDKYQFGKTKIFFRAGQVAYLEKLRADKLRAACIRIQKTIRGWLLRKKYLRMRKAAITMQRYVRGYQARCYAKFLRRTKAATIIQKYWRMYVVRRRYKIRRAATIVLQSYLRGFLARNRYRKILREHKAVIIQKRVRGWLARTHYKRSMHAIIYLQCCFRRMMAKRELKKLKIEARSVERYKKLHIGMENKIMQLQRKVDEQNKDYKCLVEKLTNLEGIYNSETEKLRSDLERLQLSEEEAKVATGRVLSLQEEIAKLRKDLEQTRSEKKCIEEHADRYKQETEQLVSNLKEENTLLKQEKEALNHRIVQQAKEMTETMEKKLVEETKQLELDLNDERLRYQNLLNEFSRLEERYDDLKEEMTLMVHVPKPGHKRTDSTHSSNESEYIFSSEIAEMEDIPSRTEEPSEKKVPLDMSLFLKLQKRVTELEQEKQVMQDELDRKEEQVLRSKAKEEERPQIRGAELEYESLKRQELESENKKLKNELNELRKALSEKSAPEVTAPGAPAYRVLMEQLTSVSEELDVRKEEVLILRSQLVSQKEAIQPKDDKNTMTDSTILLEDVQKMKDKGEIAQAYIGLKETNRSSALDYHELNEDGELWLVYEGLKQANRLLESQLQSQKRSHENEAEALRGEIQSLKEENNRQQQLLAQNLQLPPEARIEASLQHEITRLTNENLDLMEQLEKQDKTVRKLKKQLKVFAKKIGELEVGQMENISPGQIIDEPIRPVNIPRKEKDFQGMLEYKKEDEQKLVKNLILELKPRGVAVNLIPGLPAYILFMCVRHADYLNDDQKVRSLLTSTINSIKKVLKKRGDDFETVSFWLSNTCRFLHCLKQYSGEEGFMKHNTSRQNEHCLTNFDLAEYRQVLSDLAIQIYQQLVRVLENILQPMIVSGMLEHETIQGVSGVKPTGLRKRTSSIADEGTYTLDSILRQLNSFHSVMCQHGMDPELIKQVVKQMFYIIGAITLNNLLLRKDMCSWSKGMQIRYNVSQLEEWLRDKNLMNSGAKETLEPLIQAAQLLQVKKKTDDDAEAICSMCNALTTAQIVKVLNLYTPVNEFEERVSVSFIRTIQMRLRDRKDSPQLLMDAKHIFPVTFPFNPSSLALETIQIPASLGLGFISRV

- binding: binds
Molecule: myosin Va (from UniProt Q9Y4I1 1-1855)

- binding: binds
B1: neurofilament light subunit (NFL) (protein, UniProt P07196 1-543)
chain: MSSFSYEPYYSTSYKRRYVETPRVHISSVRSGYSTARSAYSSYSAPVSSSLSVRRSYSSSSGSLMPSLENLDLSQVAAISNDLKSIRTQEKAQLQDLNDRFASFIERVHELEQQNKVLEAELLVLRQKHSEPSRFRALYEQEIRDLRLAAEDATNEKQALQGEREGLEETLRNLQARYEEEVLSREDAEGRLMEARKGADEAALARAELEKRIDSLMDEISFLKKVHEEEIAELQAQIQYAQISVEMDVTKPDLSAALKDIRAQYEKLAAKNMQNAEEWFKSRFTVLTESAAKNTDAVRAAKDEVSESRRLLKAKTLEIEACRGMNEALEKQLQELEDKQNADISAMQDTINKLENELRTTKSEMARYLKEYQDLLNVKMALDIEIAAYRKLLEGEETRLSFTSVGSITSGYSQSSQVFGRSAYGGLQTSSYLMSTRSFPSYYTSHVQEEQIEVEETIEAAKAEEAKDEPPSEGEAEEEEKDKEEAEEEEAAEEEEAAKEESEEAKEEEEGGEGEEGEETKEAEEEEKKVEGAGEEQAAKKKD
